The text below walks through data of PMC6322583.

These are yes or no findings as the source states them, for the method shown. Binding seen in cells or lysates may run through a third protein. Where a sequence is shown, tags or fusion partners need not be part of it.

For the assay, the target named is T1, YN–TRM1 (TON1 RECRUITMENT MOTIF1 fused to the N-terminal half of YFP) (UniProt Q9S823).
T1 sequence: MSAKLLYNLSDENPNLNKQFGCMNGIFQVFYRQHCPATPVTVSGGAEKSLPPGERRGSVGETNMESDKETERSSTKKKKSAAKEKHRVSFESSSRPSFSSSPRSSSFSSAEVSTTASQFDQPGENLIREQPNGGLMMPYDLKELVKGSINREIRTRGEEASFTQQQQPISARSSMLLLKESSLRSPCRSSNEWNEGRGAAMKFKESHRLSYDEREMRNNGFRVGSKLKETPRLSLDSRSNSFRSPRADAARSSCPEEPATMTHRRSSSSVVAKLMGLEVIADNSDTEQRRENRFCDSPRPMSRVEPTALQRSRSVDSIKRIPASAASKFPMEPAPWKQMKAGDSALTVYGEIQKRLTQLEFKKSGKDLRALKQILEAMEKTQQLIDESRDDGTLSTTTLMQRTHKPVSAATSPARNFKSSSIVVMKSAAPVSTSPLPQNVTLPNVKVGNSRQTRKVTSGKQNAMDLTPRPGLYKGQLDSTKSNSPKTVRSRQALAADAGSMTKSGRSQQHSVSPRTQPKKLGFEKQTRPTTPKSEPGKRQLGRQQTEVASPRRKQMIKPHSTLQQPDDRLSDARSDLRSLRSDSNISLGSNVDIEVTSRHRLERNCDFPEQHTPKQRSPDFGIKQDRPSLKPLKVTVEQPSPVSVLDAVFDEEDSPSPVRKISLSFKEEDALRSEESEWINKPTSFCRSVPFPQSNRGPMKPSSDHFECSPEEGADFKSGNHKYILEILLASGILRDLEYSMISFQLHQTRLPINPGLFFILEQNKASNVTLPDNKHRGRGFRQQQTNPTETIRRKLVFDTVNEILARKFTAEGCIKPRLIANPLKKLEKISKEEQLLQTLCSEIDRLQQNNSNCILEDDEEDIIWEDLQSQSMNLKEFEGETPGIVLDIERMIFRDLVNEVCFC
The assay can be described thus: split reporter; BiFC: YN and YC fusions transiently co-expressed in N. benthamiana leaves by Agrobacterium infiltration; YFP fluorescence by confocal imaging with identical laser settings.

As for “YC–CaM2 (CaM2 fused to the C-terminal half of YFP) (from UniProt P0DH97 1-149)”, the binding entry was “no binding”.
